# According to PubChem BioAssay AID1439 (NMMLSC, 2008):
# The chains behind the UniProt entries cited, without tags or fusion partners.
# UniProt P09471, whole entry, looked up: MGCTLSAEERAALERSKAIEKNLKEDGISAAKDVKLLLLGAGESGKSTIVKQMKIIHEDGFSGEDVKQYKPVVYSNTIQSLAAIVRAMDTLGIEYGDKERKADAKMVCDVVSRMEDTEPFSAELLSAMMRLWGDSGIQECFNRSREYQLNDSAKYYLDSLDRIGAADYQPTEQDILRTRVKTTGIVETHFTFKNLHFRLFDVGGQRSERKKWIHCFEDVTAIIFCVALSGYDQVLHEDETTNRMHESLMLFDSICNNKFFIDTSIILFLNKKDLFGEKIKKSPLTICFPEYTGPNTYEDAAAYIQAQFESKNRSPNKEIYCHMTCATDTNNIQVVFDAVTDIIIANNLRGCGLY
# Screen size: about 220,000 compounds; about 770 (0.35%) were called active. Inconclusive means that the source gave no clear call. Such entries were picked first, then a sample of the others. No stated cut-off is given here; in the data, active means binding response below about 49% or above about 150%; inconclusive means no clear call, values can overlap the other calls; inactive means in between.
# Biological target: Guanine nucleotide-binding protein G(o) subunit alpha (Homo sapiens) (UniProt P09471)
# Test: RGS7-Galphao binding modulators, primary screen, biochemical, multiplexed bead flow cytometry (AID 1439);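 further: fluorescent Galphao held in activated GDP-AlF4 state binding bead-coupled RGS7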
# Settings: at 10 µM, actives lie on both sides
row,SMILES,binding response (% of control)
1,Cc1cccn2c(NCc3ccc4c(c3)OCO4)c(-c3ccc(O)cc3)nc12,inconclusive: 109%
2,Cc1csc(C(C)N(C)C(=O)CCc2nnc(CCc3ccccc3)o2)n1 (stereo not given),inactive: 98.5%
3,CSc1sc(C(=O)NCC2CC2)c2c1S(=O)(=O)N(C)c1ccccc1-2,inconclusive: 205%
4,CCc1nnc(NC(=O)CN2C(=O)/C(=C/c3ccc(OC)c(OC)c3)SC2=S)s1,inconclusive: 104%
5,COc1cc(OC)cc(C(=O)NCC(=O)OCc2cc(=O)oc3cc(OC)ccc23)c1,inconclusive: 128%
6,CNc1nc(=S)[nH]c2ccccc12,inconclusive: 157%
7,CCCCNC(=O)C(c1ccc(OCC(=O)OC)c(C(=O)OC)c1)N(CCc1ccccc1)C(=O)CCCCCN1C(=O)NC(c2ccc(-c3ccccc3)cc2)C(C(=O)OCc2ccccc2)=C1C (stereo not given),inconclusive: 91.2%
8,CC(=O)NS(=O)(=O)c1ccc2sc(C)nc2c1,inconclusive: 53.2%
9,O=[N+]([O-])c1cccc(-c2ccc(/C=N/NC(=S)NCc3ccco3)o2)c1,inconclusive: 105%
10,CCc1ccc(N2C(=O)Nc3ccccc3C2(O)C(=O)N2CCN(c3ccccn3)CC2)cc1 (stereo not given),inactive: 100%
11,CC1(C)Cc2cccc(C(=O)Nc3ccncc3)c2O1,inconclusive: 35.1%
12,CC(C)(NC(=O)c1cc(Cl)c2ccccc2c1O)C(=O)O,inconclusive: 124%
13,N#Cc1c(-c2ccccc2)nc(SCC(=O)N2c3ccccc3Sc3ccccc32)[nH]c1=O,inconclusive: 79.4%
14,O=c1c2ccccc2c(C=Nc2cccc(S(=O)(=O)NC3=NCCCCC3)c2)c(O)n1Cc1ccccc1,inconclusive: 65.5%
15,CCN(CC)C(=O)CSc1nc(O)cc(=O)n1C,inactive: 103%
16,COc1cc(NC(=O)CN2C(=O)NC(C)(c3ccc4ccccc4c3)C2=O)c(C)cc1[N+](=O)[O-] (stereo not given),inactive: 108%
17,N#Cc1nc(COc2cccc(Cl)c2)oc1NCCN1CCOCC1,inconclusive: 92.3%
18,CCOc1[nH]n(-c2ccc(Cl)cc2)c(=O)c1C=NCC(=O)OC,inconclusive: 96%
19,Nc1nccc(-c2nn(-c3ccc(Cl)cc3)ccc2=O)n1,inconclusive: 98.9%
20,O=C(COC(=O)Cc1ccc(Cl)cc1)Nc1ccccc1F,inconclusive: 113%
21,CCN1CCN(Cc2ccc(NC(=O)c3ccc(C)c(NC(=O)c4nccnc4N)c3)cc2C(F)(F)F)CC1,inconclusive: 106%
22,Cc1ccc(C(=O)Nc2cccnc2Oc2ccc(Cl)cc2)cc1,inconclusive: 101%
23,Cc1cc(C)c2nc(/N=C(\N)NC(=O)c3ccccc3)nc(C)c2c1,inconclusive: 126%

row,SMILES,binding response (% of control)
1,Cc1cccc(Nc2nc(NCc3ccco3)nc(N)c2[N+](=O)[O-])c1,inconclusive: 47.7%
2,CCN(c1ccc(NC(=O)c2ccc(Cl)nc2)cc1)C(C)C,inconclusive: 96%
3,Cc1nc(/C(=N/O)C(N)=O)cs1,inconclusive: 190%
4,CC(=O)Cc1cc(O)c2ccccc2c1OC(=O)c1ccc(Br)cc1,inconclusive: 89.8%
5,CCCn1c(CCC(=O)O)nc2cc(S(=O)(=O)N3CCCC3)ccc21,inconclusive: 127%
6,COc1ccc(/C=N/NC(=O)CSc2ccccn2)cc1OC,inconclusive: 88.7%
7,Cn1c(=O)c(NC2CCCCC2)c2c3c(cccc31)C(=O)c1ccccc1-2,inactive: 98.8%
8,CN(C)CCNC(=O)c1ccc2c(c1)N(Cc1ccc(F)cc1)CCS2,inactive: 61.8%
9,Nn1c(Cc2ccc(F)cc2)n[nH]c1=S,inconclusive: 103%
10,CC(C)(C)c1ccc(CCC2OCC(C[N+]3(C)CCOCC3)O2)cc1 (stereo not given),inconclusive: 68%
11,O=C(c1ccccn1)N(Cc1cccs1)C1(C(=O)NC2CCCCC2)CCCCC1,inactive: 95%
12,CCOC(=O)N1CCN(c2c(NCc3ccc(F)cc3)c(=O)c2=O)CC1,inconclusive: 74.1%
13,Nc1cc(=O)[nH]c(SCC(=O)Nc2cc(Cl)ccc2Cl)n1,inconclusive: 85%
14,NNC(=O)c1sc2nc(N3CCOCC3)c3c(c2c1N)CCCC3,inconclusive: 91.2%
15,CCCCC1=CC2=CC(=O)C(C)(OC(=O)CC)C(=O)C2=CN1c1ccc(OC)cc1 (stereo not given),inconclusive: 89.7%
16,CN(Cc1cc(=O)n2ccsc2n1)Cc1nc2ccccc2c(=O)[nH]1,inconclusive: 97.1%
17,CCCCCCCn1ccc(O)c(CC(=O)OC)c1=O,inconclusive: 104%
18,Cc1cc(C(=O)Nc2ccc3nc(C)sc3c2)c2ccccc2n1,inconclusive: 106%
19,N=c1sccn1CC(=O)Nc1ccccc1Sc1ccccc1,inconclusive: 106%
20,O=C(O)C(Cc1ccccc1)N1C(=O)/C(=C/C=C/c2ccco2)SC1=S (stereo not given),inconclusive: -892%
21,C=C(C)C(=O)Nc1cccc(C2=NOC3(C2)C[C@@H](C(N)=O)N(C(=O)CC(c2ccccc2)c2ccccc2)C3)c1 (stereo not given in full),inconclusive: 111%
22,O=C1CC(Sc2ccc(Cl)cc2)C(=O)N1c1ccc2c(c1)OCCO2 (stereo not given),inconclusive: 171%
23,O=C(O)CCCNC(=O)/C(=C\c1ccc(Cl)cc1)NC(=O)c1ccc(Br)cc1,inconclusive: 90.8%

# Grouped by structure, the entries above with an aryl methoxy group.
row,SMILES,binding response (% of control)
4,CCc1nnc(NC(=O)CN2C(=O)/C(=C/c3ccc(OC)c(OC)c3)SC2=S)s1,inconclusive: 104%
5,COc1cc(OC)cc(C(=O)NCC(=O)OCc2cc(=O)oc3cc(OC)ccc23)c1,inconclusive: 128%
16,COc1cc(NC(=O)CN2C(=O)NC(C)(c3ccc4ccccc4c3)C2=O)c(C)cc1[N+](=O)[O-] (stereo not given),inactive: 108%
6,COc1ccc(/C=N/NC(=O)CSc2ccccn2)cc1OC,inconclusive: 88.7%
15,CCCCC1=CC2=CC(=O)C(C)(OC(=O)CC)C(=O)C2=CN1c1ccc(OC)cc1 (stereo not given),inconclusive: 89.7%

# Later entries

row,SMILES,binding response (% of control)
1,CCOc1ccc(N/C(=N/c2nc(C)cc(C)n2)NC(C)=O)cc1,inconclusive: 106%
2,Cc1cc(C)cc(C(=O)NC(CC(N)=O)c2ccc(NC3CCCCC3)c([N+](=O)[O-])c2)c1 (stereo not given),inconclusive: 114%
3,CCCCCC(=O)N1CCCC1,inconclusive: 78.7%
4,Cc1ccccc1NC1=NC(=S)N(CC(N)=O)C12CCOC(C)(C)C2 (stereo not given),inconclusive: 110%
5,C=CCN1C(=O)/C(=C/c2ccc(OC(C)=O)c(OCC)c2[N+](=O)[O-])SC1=S,inactive: 101%
6,CCOC(=O)CNc1nc(Cl)nc(N2CCCCC2)n1,inconclusive: 87.7%
7,CN(C)S(=O)(=O)c1cccc(NC(=S)NC2CCCCC2)c1,inconclusive: 89.5%
8,CNNC(=S)Nc1ccc(Cl)cc1,inconclusive: 87.8%
9,COC(=O)NC(C)N1C(=O)C2C3C=CC(C3)C2C1=O (stereo not given),inactive: 92.4%
10,CCOC(=O)/C(=C/c1ccco1)NC(=O)c1ccc(Br)o1,inactive: 107%
11,O=C(NN1CCOCC1)C12CC3CC(CC(C3)C1)C2,inactive: 97%
12,CC(=O)NC12CC3CC(C1)CC(C(=O)OCC(=O)Nc1ncc(Cl)c(C)c1Cl)(C3)C2,inactive: 102%
13,c1nc(Nc2ccc(N3CCOCC3)cc2)c2ccsc2n1,inconclusive: 85.9%
14,Clc1ccc(/C=N/Nc2nn[nH]n2)cc1,inactive: 99.2%
15,Clc1ccc(OCc2nnc3n2CCCCC3)c(Cl)c1,inconclusive: 441%
16,O[C@@H]1COC(Nc2ccc(N=Nc3ccccc3)cc2)C[C@@H]1O (stereo not given in full),inconclusive: 93%
17,NC(=O)CSc1nc2scc(-c3ccc(Cl)cc3)c2c(=O)n1Cc1ccccc1,inactive: 101%
18,N/C(=N\O)c1ccc([N+](=O)[O-])s1,inconclusive: 62.3%
19,CCOC(=O)CSc1nnc(-c2ccc3ncccc3c2)n1C,inconclusive: 118%
20,CSc1nc(C)c(C(=O)C[n+]2ccccc2)cc1C#N,inconclusive: 251%
21,COc1ccc(OC)c(S(=O)(=O)NCC(=O)O)c1,inconclusive: 98%
22,CC(=O)NCCNC(=O)c1ccc(NC2=NC3CS(=O)(=O)CC3S2)cc1 (stereo not given),inconclusive: 91.8%
23,Cc1cc(C(=O)COC(=O)C2CCN(C(=O)c3ccc(Cl)cc3)CC2)c(C)n1CC1CCCO1 (stereo not given),inconclusive: 79.9%

row,SMILES,binding response (% of control)
1,O=C(COc1ncnc2ccccc12)Nc1ccc(Cl)c(S(=O)(=O)N2CCOCC2)c1,inconclusive: 144%
2,Cc1ccc(NC(=S)NCC(C)C)cc1,inactive: 98.7%
3,CCOc1ccc(/C=C2\SC(=S)N(NS(=O)(=O)c3ccc(C)cc3)C2=O)cc1OC,inconclusive: 10.6%
4,OC1(c2ccccc2)c2ccccc2-c2ncccc21 (stereo not given),inconclusive: 90.9%
5,O=C(Nc1ccc([N+](=O)[O-])cc1Br)c1cccnc1,inactive: 105%
6,CCOc1ccc(-c2nn[nH]n2)cc1,inactive: 105%
7,Cc1cc(C)n(CC(=O)N/N=C/c2c[nH]c3ccccc23)n1,inconclusive: 141%
8,S=c1[nH]nc(C2CC2)n1Cc1ccccc1,inconclusive: 97.6%
9,COC(=O)c1ccc(COc2cccc(C)c2C)cc1,inconclusive: 124%
10,O=C(Nc1cccnc1)c1ccc(NS(=O)(=O)c2cc([N+](=O)[O-])ccc2Cl)cc1,inconclusive: 49.4%
11,O=C(Cc1ccc(Br)cc1)Nc1nc2ccccc2[nH]1,inconclusive: 91.4%
12,COc1ccc(-c2csc(Nc3ccc(C)cn3)n2)cc1OC,inconclusive: 119%
13,CCOC(=O)c1[nH]c2cc3c(cc2c1NC(=O)CN1CCCC1)OCO3,inconclusive: 18.7%
14,S=C(NCCc1ccccc1)Nc1ccccc1,inconclusive: 80.4%
15,COc1ccccc1N1CCN(CCc2n[nH]c(=S)n2-c2ccccc2)CC1,inactive: 103%
16,Cc1ccc(N/C(N)=N/c2nc(C)cc(N3CCCCC3)n2)c(C)c1,inconclusive: 81.6%
17,O=C(Nc1ccc2c(c1)C(=O)OC2)Nc1cccc2ccccc12,inconclusive: 101%
18,Cc1ccc(S(=O)(=O)N2CCOCC2)cc1C(=O)Nc1ccc(S(=O)(=O)Nc2nccs2)cc1,inconclusive: 96.2%
19,Nc1nc(Nc2ccccc2F)nc(NCc2ccco2)c1[N+](=O)[O-],inconclusive: 21.2%
20,O=C(Nc1cccc(F)c1)NC1CCN(Cc2ccccc2)CC1,inactive: 98.3%
21,CC(C)Oc1ccc(CCC(=O)NNC(=S)NCc2ccccc2)cc1,inconclusive: 139%

# Reprinted at random: two compounds from above, in no set order.
row,SMILES,binding response (% of control)
6,CCOc1ccc(-c2nn[nH]n2)cc1,inactive: 105%
18,Cc1ccc(S(=O)(=O)N2CCOCC2)cc1C(=O)Nc1ccc(S(=O)(=O)Nc2nccs2)cc1,inconclusive: 96.2%
